In general, pIC50 refers to −log10 of the IC50, conventionally taken in molar units.

The chains behind the UniProt entries cited, without tags or fusion partners.
UniProt O75530, whole entry: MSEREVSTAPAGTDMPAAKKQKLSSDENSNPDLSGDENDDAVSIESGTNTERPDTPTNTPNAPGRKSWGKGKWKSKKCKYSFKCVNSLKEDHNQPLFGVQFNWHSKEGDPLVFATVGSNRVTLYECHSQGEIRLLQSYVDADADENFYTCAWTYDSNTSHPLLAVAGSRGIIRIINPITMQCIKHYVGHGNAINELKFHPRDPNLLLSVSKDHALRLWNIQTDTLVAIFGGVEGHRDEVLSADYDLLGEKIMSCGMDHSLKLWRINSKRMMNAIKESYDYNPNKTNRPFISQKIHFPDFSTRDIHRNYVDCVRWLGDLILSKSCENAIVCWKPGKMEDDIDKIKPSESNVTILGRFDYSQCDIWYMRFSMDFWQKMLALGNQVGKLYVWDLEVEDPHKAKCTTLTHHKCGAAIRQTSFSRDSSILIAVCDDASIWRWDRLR
UniProt Q15022, whole entry partner: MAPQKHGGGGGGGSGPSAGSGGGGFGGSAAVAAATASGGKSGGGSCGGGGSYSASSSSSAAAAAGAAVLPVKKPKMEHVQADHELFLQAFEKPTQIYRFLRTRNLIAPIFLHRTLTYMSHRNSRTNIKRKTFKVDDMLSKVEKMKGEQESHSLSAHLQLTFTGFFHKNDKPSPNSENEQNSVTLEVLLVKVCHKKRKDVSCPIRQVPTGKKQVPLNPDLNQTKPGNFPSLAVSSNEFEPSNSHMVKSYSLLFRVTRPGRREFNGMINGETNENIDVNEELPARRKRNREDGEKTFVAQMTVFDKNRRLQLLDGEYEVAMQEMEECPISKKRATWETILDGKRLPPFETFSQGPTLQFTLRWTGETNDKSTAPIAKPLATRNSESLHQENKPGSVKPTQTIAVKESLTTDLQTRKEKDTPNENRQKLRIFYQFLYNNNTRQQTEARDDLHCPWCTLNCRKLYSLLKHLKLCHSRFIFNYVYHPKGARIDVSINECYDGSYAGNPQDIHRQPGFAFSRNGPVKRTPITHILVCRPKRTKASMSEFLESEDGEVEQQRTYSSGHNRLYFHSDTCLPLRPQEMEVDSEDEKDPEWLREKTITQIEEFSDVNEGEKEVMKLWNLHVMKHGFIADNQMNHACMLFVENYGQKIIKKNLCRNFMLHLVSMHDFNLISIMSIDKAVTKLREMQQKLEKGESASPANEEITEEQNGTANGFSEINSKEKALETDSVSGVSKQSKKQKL
UniProt Q15910, whole entry partner: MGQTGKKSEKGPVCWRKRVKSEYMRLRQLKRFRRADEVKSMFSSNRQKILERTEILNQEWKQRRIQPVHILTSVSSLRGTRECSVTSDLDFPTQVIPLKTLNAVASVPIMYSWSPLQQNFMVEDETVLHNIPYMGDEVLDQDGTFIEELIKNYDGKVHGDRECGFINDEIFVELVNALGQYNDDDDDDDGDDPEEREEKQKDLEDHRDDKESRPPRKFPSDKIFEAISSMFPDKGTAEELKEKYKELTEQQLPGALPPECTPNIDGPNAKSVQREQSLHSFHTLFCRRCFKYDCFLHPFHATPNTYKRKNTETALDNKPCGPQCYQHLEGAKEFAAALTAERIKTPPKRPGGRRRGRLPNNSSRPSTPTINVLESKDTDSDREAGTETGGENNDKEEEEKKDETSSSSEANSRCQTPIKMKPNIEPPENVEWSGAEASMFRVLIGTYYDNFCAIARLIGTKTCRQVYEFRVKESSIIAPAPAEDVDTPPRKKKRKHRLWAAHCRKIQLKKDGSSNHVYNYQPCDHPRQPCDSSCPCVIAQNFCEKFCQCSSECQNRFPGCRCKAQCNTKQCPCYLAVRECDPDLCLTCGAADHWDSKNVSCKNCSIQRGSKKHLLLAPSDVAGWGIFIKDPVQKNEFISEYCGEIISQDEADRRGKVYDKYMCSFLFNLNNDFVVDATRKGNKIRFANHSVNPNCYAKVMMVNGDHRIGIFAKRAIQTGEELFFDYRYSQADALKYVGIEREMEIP

pIC50: −log10 of the molar value. The match of structure and compound is tentative.

Assay [1] has as its target wild type PRC2 (wtPRC2) complex (Homo sapiens (Human), UniProt O75530). In words: EED LC-MS assay. Type of assay: biochemical. The conditions noted are these: read-out: (b) IC50 EED LC-MS Qualified.
Assay [2] has as its system H3K27 methylation in G401 cell. In words: ELISA (H3K27 methylation) assay in G401 cells. The class given is cell-based, human. Particulars: read-out: (c) IC50 ELISA Qualified. (An ELISA detects its analyte on a solid surface through an enzyme-linked reagent.)
The target of another assay is EED (1-441)-His protein (Homo sapiens (Human), UniProt O75530). In words: EED-H3K27Me3 peptide competition binding assay by AlphaScreen. Particulars: read-out: (a) IC50 EED Alphascreen binding Qualified. A general note: Alpha assays give light when donor and acceptor beads are brought close together.

On to `Fc1ccc2c(c1CNc1ncc(-c3cccnc3C(F)(F)F)c3nncn13)CCO2`, for which the pIC50 in assay [1] is 7.51; in assay [2], 7.58; on EED (1-441)-His protein it was 7.95.

The values above are taken from patent US9580437B2, “Triazolopyrimidine compounds and uses thereof” (Novartis AG, priority 2014, dated 2017).
